# Results from the supplement of paper PMC12067093, “Discovery and optimisation of a covalent ligand for TRIM25 and its application to targeted protein ubiquitination” (Chemical Science, 2025).
# Sequences of proteins named here, by UniProt entry; tags and fusion partners are left off. A change or cut given only in a name is not applied to a line headed by its entry.
# UniProt Q9UHQ4: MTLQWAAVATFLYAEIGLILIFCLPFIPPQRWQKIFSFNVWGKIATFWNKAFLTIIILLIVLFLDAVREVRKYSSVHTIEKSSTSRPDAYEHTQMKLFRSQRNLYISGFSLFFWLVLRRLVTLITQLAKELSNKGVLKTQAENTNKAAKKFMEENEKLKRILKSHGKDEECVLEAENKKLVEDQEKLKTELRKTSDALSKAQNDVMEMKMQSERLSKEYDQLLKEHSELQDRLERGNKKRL
# UniProt Q14137: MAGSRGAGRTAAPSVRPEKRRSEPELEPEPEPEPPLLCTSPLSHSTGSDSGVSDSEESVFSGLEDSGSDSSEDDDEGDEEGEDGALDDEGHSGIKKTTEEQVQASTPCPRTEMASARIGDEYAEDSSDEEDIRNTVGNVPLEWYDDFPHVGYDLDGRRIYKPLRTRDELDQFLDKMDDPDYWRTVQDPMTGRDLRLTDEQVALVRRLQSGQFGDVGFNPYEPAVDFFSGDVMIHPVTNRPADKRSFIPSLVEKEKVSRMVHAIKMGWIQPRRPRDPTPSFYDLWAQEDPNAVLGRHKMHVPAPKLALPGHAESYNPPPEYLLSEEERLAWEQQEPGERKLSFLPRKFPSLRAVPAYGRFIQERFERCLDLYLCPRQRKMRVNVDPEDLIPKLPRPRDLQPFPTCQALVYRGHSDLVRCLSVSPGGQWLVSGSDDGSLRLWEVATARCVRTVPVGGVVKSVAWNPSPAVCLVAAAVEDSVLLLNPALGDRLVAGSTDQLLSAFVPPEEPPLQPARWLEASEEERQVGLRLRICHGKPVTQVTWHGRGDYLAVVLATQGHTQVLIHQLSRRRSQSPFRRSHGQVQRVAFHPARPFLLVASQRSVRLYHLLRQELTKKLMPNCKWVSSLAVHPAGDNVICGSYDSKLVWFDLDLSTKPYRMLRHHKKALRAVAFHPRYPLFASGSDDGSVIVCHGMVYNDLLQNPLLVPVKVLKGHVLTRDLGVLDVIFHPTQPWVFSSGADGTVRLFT
# UniProt Q9UBB4: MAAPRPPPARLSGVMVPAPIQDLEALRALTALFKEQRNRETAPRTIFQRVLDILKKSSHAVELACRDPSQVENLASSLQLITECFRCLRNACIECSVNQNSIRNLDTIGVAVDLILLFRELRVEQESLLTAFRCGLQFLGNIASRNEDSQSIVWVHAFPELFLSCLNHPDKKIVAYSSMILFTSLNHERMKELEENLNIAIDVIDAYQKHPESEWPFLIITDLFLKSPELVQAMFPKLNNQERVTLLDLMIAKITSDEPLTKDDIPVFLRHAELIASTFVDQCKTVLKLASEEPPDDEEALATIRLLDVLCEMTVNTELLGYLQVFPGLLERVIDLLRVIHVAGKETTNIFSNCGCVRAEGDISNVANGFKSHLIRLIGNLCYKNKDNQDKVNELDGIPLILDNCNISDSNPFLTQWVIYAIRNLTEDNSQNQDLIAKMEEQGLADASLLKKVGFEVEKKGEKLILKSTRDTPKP
# UniProt Q9NR09, whole entry, looked up: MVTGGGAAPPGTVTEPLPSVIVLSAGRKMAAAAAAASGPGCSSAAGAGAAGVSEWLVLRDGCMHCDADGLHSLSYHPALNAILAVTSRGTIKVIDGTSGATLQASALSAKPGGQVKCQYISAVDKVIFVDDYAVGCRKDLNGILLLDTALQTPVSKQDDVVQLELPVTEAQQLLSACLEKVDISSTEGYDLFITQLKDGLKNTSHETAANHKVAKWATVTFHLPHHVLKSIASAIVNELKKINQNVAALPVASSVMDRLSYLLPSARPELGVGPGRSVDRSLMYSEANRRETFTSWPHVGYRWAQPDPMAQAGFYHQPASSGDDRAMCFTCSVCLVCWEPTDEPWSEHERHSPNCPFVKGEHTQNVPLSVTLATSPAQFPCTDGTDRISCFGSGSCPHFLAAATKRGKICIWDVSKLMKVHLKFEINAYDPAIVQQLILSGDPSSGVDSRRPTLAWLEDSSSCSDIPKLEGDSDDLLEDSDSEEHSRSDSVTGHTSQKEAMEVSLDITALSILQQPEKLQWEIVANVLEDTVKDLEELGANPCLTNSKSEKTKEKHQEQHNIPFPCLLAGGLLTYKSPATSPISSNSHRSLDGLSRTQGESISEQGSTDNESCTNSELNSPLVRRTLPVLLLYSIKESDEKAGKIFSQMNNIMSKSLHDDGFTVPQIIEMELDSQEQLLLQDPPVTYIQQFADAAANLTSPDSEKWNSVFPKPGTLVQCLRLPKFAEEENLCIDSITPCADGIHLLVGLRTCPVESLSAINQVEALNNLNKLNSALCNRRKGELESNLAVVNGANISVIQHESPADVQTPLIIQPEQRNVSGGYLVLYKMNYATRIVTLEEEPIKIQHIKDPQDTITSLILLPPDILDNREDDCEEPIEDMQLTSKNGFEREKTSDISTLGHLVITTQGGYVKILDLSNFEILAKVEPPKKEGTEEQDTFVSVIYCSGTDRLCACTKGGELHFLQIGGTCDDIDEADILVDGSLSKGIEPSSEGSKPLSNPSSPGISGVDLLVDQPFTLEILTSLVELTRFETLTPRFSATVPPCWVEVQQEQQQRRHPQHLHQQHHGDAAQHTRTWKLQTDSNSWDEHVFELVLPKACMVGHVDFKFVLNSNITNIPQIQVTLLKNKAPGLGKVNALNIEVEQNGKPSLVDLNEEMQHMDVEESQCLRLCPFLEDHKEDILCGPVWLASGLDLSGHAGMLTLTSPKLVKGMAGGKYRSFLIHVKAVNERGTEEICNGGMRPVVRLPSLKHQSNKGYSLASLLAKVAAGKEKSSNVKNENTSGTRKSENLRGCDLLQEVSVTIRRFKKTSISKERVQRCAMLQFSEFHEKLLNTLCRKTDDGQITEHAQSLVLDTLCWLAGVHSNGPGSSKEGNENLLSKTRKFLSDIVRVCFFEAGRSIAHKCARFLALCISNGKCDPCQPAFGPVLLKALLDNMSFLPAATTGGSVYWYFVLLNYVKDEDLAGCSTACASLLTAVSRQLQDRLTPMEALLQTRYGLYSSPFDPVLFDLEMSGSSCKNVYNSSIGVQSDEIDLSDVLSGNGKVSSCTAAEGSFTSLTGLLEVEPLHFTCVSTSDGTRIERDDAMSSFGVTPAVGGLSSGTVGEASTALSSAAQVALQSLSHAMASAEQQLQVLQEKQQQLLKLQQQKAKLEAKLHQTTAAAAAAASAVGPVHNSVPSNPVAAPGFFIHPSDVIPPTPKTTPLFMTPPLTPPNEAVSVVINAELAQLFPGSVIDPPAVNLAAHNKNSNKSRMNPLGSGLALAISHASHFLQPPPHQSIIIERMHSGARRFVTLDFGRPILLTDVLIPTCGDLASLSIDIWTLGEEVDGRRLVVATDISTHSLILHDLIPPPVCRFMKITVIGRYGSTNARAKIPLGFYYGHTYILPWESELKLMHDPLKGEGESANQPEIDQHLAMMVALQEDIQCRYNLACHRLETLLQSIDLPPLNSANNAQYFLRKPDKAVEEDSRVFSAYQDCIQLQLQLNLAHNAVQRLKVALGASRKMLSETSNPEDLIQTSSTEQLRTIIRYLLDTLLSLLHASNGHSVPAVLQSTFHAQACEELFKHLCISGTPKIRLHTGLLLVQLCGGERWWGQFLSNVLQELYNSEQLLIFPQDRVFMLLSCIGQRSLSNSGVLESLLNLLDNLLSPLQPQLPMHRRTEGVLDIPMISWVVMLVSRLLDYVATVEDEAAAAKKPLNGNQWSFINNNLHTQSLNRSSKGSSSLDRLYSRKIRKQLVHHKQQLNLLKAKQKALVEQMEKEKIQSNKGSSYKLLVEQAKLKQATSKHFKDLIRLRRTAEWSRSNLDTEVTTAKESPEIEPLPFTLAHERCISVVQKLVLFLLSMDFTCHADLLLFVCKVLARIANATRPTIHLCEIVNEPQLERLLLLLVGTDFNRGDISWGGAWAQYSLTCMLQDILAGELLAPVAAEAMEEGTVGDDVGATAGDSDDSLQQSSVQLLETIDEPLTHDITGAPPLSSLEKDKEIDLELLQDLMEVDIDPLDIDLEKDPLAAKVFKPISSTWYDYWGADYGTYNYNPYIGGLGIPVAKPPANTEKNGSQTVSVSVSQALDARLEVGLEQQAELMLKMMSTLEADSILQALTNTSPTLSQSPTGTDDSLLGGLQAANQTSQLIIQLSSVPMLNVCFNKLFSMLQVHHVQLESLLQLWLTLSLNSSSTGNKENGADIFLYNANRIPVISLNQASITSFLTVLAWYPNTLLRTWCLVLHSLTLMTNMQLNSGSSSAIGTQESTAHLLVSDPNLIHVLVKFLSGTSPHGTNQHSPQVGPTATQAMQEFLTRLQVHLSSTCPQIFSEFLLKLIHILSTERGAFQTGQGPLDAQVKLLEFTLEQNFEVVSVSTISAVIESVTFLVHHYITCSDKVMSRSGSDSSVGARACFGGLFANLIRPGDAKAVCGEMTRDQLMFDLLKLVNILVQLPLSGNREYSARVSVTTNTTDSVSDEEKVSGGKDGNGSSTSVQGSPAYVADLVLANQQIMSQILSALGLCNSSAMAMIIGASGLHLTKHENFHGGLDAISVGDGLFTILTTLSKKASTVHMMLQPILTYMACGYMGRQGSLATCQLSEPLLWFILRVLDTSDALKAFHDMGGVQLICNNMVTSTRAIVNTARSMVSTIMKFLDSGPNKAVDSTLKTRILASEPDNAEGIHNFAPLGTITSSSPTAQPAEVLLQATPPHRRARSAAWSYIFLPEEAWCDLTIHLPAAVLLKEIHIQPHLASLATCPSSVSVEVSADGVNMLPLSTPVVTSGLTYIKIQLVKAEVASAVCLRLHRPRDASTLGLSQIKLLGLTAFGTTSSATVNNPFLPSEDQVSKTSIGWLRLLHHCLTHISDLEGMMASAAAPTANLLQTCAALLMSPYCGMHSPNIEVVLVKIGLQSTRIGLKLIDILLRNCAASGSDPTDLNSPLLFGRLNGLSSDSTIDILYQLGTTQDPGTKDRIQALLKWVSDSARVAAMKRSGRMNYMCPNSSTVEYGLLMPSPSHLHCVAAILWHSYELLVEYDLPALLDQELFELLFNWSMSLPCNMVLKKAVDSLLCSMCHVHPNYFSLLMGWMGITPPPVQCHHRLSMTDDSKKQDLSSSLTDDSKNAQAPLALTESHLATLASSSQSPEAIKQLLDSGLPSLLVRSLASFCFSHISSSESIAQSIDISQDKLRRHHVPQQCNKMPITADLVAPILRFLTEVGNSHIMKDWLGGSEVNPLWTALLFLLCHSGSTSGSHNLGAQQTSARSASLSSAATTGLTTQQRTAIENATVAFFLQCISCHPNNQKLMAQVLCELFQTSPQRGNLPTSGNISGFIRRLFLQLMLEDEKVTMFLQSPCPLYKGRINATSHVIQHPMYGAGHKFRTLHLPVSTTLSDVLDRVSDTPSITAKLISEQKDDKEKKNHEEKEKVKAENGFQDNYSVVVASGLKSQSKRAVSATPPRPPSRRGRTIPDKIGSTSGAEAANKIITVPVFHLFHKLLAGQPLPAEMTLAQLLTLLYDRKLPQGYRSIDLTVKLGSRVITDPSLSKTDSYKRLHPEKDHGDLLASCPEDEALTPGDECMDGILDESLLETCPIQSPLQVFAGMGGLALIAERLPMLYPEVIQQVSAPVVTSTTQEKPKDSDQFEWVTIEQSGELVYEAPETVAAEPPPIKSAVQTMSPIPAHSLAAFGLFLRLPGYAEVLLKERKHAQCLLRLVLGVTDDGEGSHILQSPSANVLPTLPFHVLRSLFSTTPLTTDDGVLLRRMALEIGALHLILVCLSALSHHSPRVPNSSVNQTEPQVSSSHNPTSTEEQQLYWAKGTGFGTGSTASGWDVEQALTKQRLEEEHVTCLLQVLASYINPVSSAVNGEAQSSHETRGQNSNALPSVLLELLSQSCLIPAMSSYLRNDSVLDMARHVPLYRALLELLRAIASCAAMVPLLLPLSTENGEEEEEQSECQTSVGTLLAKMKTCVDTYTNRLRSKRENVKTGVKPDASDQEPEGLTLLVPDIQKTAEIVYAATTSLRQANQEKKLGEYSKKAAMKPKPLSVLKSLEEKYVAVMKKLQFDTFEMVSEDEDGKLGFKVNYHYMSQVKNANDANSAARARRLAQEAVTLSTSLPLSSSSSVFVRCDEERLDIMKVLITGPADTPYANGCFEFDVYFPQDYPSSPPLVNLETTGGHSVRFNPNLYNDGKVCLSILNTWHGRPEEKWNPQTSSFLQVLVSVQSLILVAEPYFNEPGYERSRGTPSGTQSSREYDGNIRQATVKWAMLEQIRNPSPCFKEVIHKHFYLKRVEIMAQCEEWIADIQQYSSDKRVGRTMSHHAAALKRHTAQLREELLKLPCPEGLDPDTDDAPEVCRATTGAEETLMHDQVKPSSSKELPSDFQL
# This is one part of the list.
# Compound: CC1Cc2ccccc2N1C(=O)C1CCCN(C1)C(=O)CCl (mixture of isomers) [TRIM25 ligand 11 (diastereomer mixture)]
# Experiment: probe-labelled cysteine peptide fold change vs DMSO (competition) (log2 fold change); higher = less target engagement (more negative = stronger competition)
# Conditions: THP-1, incubation time: 4 h
# 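Note: competitive chemoproteomic profiling in live THP-1 cells with an iodoacetamide desthiobiotin (IA-DTB) probe, comparing probe-labelled peptide intensities in compound-treated cells against DMSO-treated controls.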
Target,probe-labelled cysteine peptide fold change (10 µM),probe-labelled cysteine peptide fold change (50 µM)
BCR_P11274_395_HCPVVVSEATIVGVR (UniProt P11274),0.0473,-0.124
BCAP29_Q9UHQ4_171_SHGKDEECVLEAENK (UniProt Q9UHQ4),0.0274,-0.21
BOP1_Q14137_373_CLDLYLCPR (UniProt Q14137),-0.0618,-0.109
BCKDK_O14874_152_DQADEAQYCQLVR (UniProt O14874),0.0646,-0.0605
BABAM1_Q9NWV8_294_YEVALAGPALELHNCMAK (UniProt Q9NWV8),0.131,0.114
BOD1L1_Q8NFC6_2599_CEQDLTIK (UniProt Q8NFC6),-0.198,-0.265
ATXN1L_P0C7T5_568_TTQLFSLPCHR (UniProt P0C7T5),0.099,-0.087
ATXN10_Q9UBB4_95_NACIECSVNQNSIR (UniProt Q9UBB4),0.00675,0.27
BOP1_Q14137_620_KLMPNCK (UniProt Q14137),-0.191,-0.0748
BAG1_Q99933_330_KVQAFLAECDTVEQNICQETER (UniProt Q99933),-0.0556,-0.1
BIRC6_Q9NR09_739_FAEEENLCIDSITPCADGIHLLVGLR (UniProt Q9NR09),-0.498,-0.0824
BAZ2A_Q9UIF9_828_KPTEDMCLTDHQPLPDFSR (UniProt Q9UIF9),0.113,-0.145
BCAT1_P54687_140_EELLECIQQLVK (UniProt P54687),0.336,0.314
BLMH_Q13867_164_CFPESYTTEATR (UniProt Q13867),0.0281,-0.0517

# 2 entries from above, bar-delimited.
Target | probe-labelled cysteine peptide fold change (10 µM) | probe-labelled cysteine peptide fold change (50 µM)
BCAP29_Q9UHQ4_171_SHGKDEECVLEAENK (UniProt Q9UHQ4) | 0.0274 | -0.21
BOP1_Q14137_373_CLDLYLCPR (UniProt Q14137) | -0.0618 | -0.109
